For one molecule, binding results are on record in US20120058105A1.

No constants are given. Whether binding was seen depends on the method and setting. In cells and extracts the contact can be indirect. Some results given as binding are weak or reduced against the parent protein; the word gives no strength.

For test [1], the target named is T1, thioredoxin (TRX1) (human) (UniProt P10599).
T1 sequence: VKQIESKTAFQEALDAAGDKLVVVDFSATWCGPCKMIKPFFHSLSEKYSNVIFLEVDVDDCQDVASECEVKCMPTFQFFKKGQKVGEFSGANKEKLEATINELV
Briefly: co-immunoprecipitation from HCAEC lysates (anti-TXNIP pull-down, anti-TRX Western blot), 5 mM vs 25 mM D-glucose. For orientation: Immunoblotting shows a protein as a band on a membrane.

For test [2], the target named is T1, thioredoxin (TRX1) (human). Briefly: co-immunoprecipitation from HCAEC lysates (rabbit anti-VDUP1/TXNIP on Protein G Sepharose, Western blot with rabbit anti-TRX1), 5 or 25 mM D-glucose for 24 h.

B1: thioredoxin interacting protein (TXNIP) (protein)
chain: MVMFKKIKSFEVVFNDPEKVYGSGEKVAGRVIVEVCEVTRVKAVRILACGVAKVLWMQGSQQCKQTSEYLRYEDTLLLEDQPTGENEMVIMRPGNKYEYKFGFELPQGPLGTSFKGKYGCVDYWVKAFLDRPSQPTQETKKNFEVVDLVDVNTPDLMAPVSAKKEKKVSCMFIPDGRVSVSARIDRKGFCEGDEISIHADFENTCSRIVVPKAAIVARHTYLANGQTKVLTQKLSSVRGNHIISGTCASWRGKSLRVQKIRPSILGCNILRVEYSLLIYVSVPGSKKVILDLPLVIGSRSGLSSRTSSMASRTSSEMSWVDLNIPDTPEAPPCYMDVIPEDHRLESPTTPLLDDMDGSQDSPIFMYAPEFKFMPPPTYTEVDPCILNNNVQ
For B1, the binding entry in test [1] and in test [2] was “binds” throughout.
